# Source: article PMC10778626, “Efficacy of Novel Quaternary Ammonium and Phosphonium Salts Differing in Cation Type and Alkyl Chain Length against Antibiotic-Resistant Staphylococcus aureus” (International Journal of Molecular Sciences, 2023)
# Tested on: S. aureus CECT 976
# Experiment: MIC/MBC by broth microdilution, S. aureus CECT 976
# Assay type: cell-based
# Details: Staphylococcus aureus, CECT976, 24 h
# Experimental: The minimum inhibitory concentration (MIC) and minimum bactericidal concentration (MBC) values of all QHSs were determined by the broth microdilution method, according to the approved M7-A7 (aerobes) standards of the Clinical and Laboratory Standards Institute (CLSI) guidelines. Overnight cell cultures of S. aureus, in the exponential phase of growth, were adjusted to an optical density (OD) of 0.132 ± 0.02 (λ = 600 nm). Then, a volume of 180 µL of the cell suspension was added to sterile, flat, clear-bottomed polystyrene (PS) 96-well microtiter plates (VWR—Radnor, PA, USA), already containing 20 µL of each QHS under study at concentrations ranging from 0.0625 to 64 µg/mL. In the end, the volume of each compound never exceeded 10% (v/v) of the well volume. Microtiter plates were then incubated for 24 h at 37 °C under agitation (150 rpm; INCU-Line IL 150R incubator). Absorbance measurements were performed at the beginning (t = 0 h) and end (t = 24 h) of the incubation period using a microtiter plate absorbance reader (BMG LABTECH FLUOstar Omega). Bacterial suspensions with DMSO and without QHSs were used as negative controls. […]
# Plates were incubated at 37 °C for 24 h, and growth was visually inspected. The MBC was determined as the lowest concentration of compound in which the total inhibition of growth on solid medium was observed (no colony forming units (CFUs) were detected). […]
smiles,measurement,value
"CCCCCCCCCCCCCCCC[n+]1ccccc1.[Br-] [Compound 6f, 1-Hexadecylpyridin-1-ium bromide]",MIC,4 µg/mL
